# Microarray screen: hit calls

Data from the ROBIN nucleic acid binder screens, doi:10.1002/anie.202211358.

Targets, with sequences 5′ to 3′:
PreQ1: PreQ1 riboswitch RNA pseudoknot, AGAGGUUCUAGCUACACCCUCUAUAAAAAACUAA. From B. subtilis. About 24,000 compounds screened, about 170 hits.
TPP: TPP riboswitch RNA three-way junction, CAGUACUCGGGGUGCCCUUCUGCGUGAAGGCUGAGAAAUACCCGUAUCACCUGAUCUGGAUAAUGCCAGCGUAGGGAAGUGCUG. About 24,000 compounds screened, about 160 hits.
SAM-II: SAM-II riboswitch RNA pseudoknot, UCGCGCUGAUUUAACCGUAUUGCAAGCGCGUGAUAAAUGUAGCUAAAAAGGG. About 21,000 compounds screened, about 200 hits.

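The test is a small-molecule microarray: each compound is printed twice on a reactive slide, and binding shows as fluorescence of the labelled oligonucleotide after washing. For the PreQ1, TPP and SAM-II riboswitches the laboratory earlier reported (doi:10.1038/s41467-019-09493-3) 1 µM RNA, 2 h, and a rule that included a mean Z-score above 3 (spot signal-to-noise against the whole library), a score well above that on a control array, and duplicate spots agreeing (coefficient of variation under 100). The data file gives only the calls; its cut-offs may differ, and compounds hitting several targets are kept. These are primary screening calls, not affinities; a compound without a hit may have attached poorly or may still bind in solution.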
“yes” means called a hit, “no” means screened and not called a hit.
This is an unselected part of the compounds tested.
A target missing from an entry has no call listed here.
A dash means that no call is listed here.

| Compound | PreQ1 | TPP | SAM-II |
|---|---|---|---|
| `N#C[C@H](O[C@@H]1O[C@H](CO[C@@H]2O[C@H](CO)[C@H](O)[C@@H](O)[C@H]2O)[C@H](O)[C@@H](O)[C@H]1O)c1ccccc1` | no | no | no |
| `Cc1[nH]c(=S)[nH]c(=O)c1Cc1c(O)ccc2ccccc12` | no | no | no |
| `O=C(Nc1cccc(Cl)c1)N1CCN(CCO)CC1` | no | no | no |
| `OCc1nc2ccccc2n1CC=Cc1ccccc1` | no | no | no |
| `CCCOc1ccc(Cn2c(C(C)O)nc3ccccc32)cc1` (stereo not drawn) | no | no | no |
| `CC1(C)[C@@]2(C(=O)NCCc3nc4ccccc4[nH]3)CC[C@]1(C)[C@@H](O)C2` | no | no | no |
| `Nc1nc2c(-c3ccccc3)nnn2c2ccccc12` | no | no | no |
| `Cc1ccccc1OCC(O)C(=O)N1CCC(CN2CCOCC2)CC1` (stereo not drawn) | no | no | no |
| `CCc1ccc(OCCCn2c(C(O)CC)nc3ccccc32)cc1` (stereo not drawn) | no | no | no |
| `COc1ccc(CNCc2ccc(Cl)cc2)cc1OC` | no | no | no |
| `Cc1nnc(NCCCN2CCOCC2)c2c1nnn2Cc1ccccc1Cl` | no | no | - |
| `OC(COc1ccc(I)cc1)Cn1c(C(F)(F)F)nc2ccccc21` (stereo not drawn) | no | no | no |
| `O=C(c1nn(-c2ccccc2)c(=O)cc1O)N1CCOCC(CO)C1` (stereo not drawn) | no | no | no |
| `COc1ccc(-c2nc3c(c(SC)n2)Cc2c(CO)cnc(C)c2O3)cc1` | no | no | - |
| `CCCCSc1nc(N)cc(N2CCN(Cc3csc(C)n3)CC2)n1` | no | no | no |
| `CC(=O)OCc1c(C)cc(C)c(CNCc2cnc(C)cn2)c1C` | no | no | no |
| `Cc1cnn(CCC(=O)N2C[C@H](O)[C@@H](N(C)CCn3ccnc3C)C2)c1` | no | no | no |
| `CC(C)NC(=O)c1ccccc1-c1cc(Cl)c2c(c1)CC(CN)O2` (stereo not drawn) | no | no | no |
| `OCC1COCCN(c2nc3ccccc3o2)C1` (stereo not drawn) | no | no | no |
| `O=S(=O)(Nc1nc2ccccc2nc1NCc1ccccc1)c1ccc(Cl)cc1` | no | no | no |
| `Cc1cc(C)c(NC(=O)c2cnn(C(=O)c3ccccc3)c2N)c(C)c1` | no | no | no |
| `Cc1cccc(C)c1OCC(O)CN1CCCCC1` (stereo not drawn) | no | no | no |
| `Cc1cccc2[nH]c(C3CCN(C(=O)CC4CNCCO4)CC3)nc12` (stereo not drawn) | no | no | no |
| `COc1ccc(C(=O)Nc2ccccc2)cc1N` | no | no | no |
| `OC1(CNCc2csc(N3CCCC3)n2)CNCCOC1` (stereo not drawn) | no | no | no |
| `Cn1c(=O)n(C)c2cc(CNc3cc(C(=O)O)ccc3Cl)ccc21` | no | no | - |
| `CCCCC(Nc1ncnc2ccc(Br)cc12)C(=O)O` (stereo not drawn) | no | no | no |
| `C=CCn1c(CCCO)nc2ccccc21` | no | no | no |
| `CO[C@H]1CN(c2nnnn2-c2ccc(Oc3ccccc3)cc2)CC[C@H]1N` | no | no | no |
| `OCc1ccc(Cn2cnc(-c3ccccc3)c2-c2ccc(CO)o2)cc1` | no | no | no |
| `Cc1cccc(OCCCCn2c(CO)nc3ccccc32)c1C` | no | no | no |
| `CC(C)=CCN1CCN(c2cc(C)nc3ccccc23)CC1CCO` (stereo not drawn) | no | no | no |
| `N#Cc1n[nH]c2nc[nH]c(=O)c12` | no | no | no |
| `CCCCn1cnc2cc(NCc3ccc(C)cc3)ccc21` | no | no | no |
| `COC(=O)c1cccc(NC2=NS(=O)(=O)c3ccccc32)c1` | no | no | - |
| `Cc1ccc(CN2CCC(C(=O)N(CCO)Cc3ccccc3)CC2)o1.O=C(O)C(=O)O` | no | no | no |
| `O=C(O)CCn1c2c(c3ccccc31)C[C@H](NS(=O)(=O)c1ccc(F)cc1)CC2` | no | no | no |
| `CCc1ccc2nc(C)cc(C(=O)NCCNc3cccnc3)c2c1` | no | no | no |
| `CN(C)CCn1c(=O)c2c(ncn2CC(O)CO)n(C)c1=O` (stereo not drawn) | no | no | - |
| `O=C(C=C=Nc1ccccc1)C(=O)N=C=Cc1ccccc1` | no | no | no |
| `CC1=NCC(C)c2ccccc21` (stereo not drawn) | no | no | no |
| `Cc1ccccc1[C@@H]1CN(CCOCCO)C[C@H]1C(=O)O` | no | no | no |
| `CC(=NNC(=O)c1n[nH]c2c1CCC2)c1ccc(N)cc1` | no | no | no |
| `COc1nc(NC(C)(C)CO)nc(OC)n1` | no | no | no |
| `c1ccc2sc(N3CCCN(Cc4cc5n(n4)CCNC5)CC3)nc2c1` | no | no | no |
| `CC(C)(C)NC(=O)[C@@H]1Cc2ccccc2CN1C(=O)c1ccnc(N)c1` | no | no | no |
| `CC1(C)CC(NC(=O)C(c2ccccc2)c2ccccc2)CC(C)(C)N1` | no | no | no |
| `CCOc1ccc(S(=O)(=O)[C@H]2CS(=O)(=O)C[C@@H]2NCc2ccccc2OC)cc1` | no | no | - |
| `COCC1=C(C(=O)OC)C(c2ccccc2Br)C(C#N)=C(N)O1` (stereo not drawn) | no | no | no |
| `Cc1ccc(C2C(C#N)=C(N)OC3=C2S(=O)(=O)N(Cc2cccc(C)c2)c2ccccc23)cc1` (stereo not drawn) | no | no | no |
| `NCCO[C@H]1C[C@@H](O)C12CCN(C(=O)CCCc1cccs1)CC2` | no | no | no |
| `O=C1c2ccccc2C(=O)N1CC(O)CN1c2ccccc2Sc2ccccc21` (stereo not drawn) | no | no | no |
| `COc1ccccc1OC1CCN(Cc2cccc(CCN)c2)CC1` | no | no | yes |
| `CC1=C(C(=O)Nc2cc3cn[nH]c3cc2F)C(c2ccc(C(F)(F)F)cc2)CC(=O)N1` (stereo not drawn) | no | no | no |
| `NCCCCN1CCCCC1` | no | no | no |
| `CC1(C)N=C(N)N=C(N)N1c1ccc(OCCCOc2ccccc2)c(Cl)c1.CCS(=O)(=O)O` | no | no | no |
| `COc1ccc2c(c[n+](C)c3c4cc5c(cc4ccc23)OCO5)c1OC` | no | no | no |
| `CCSCC(C)NC1CCN(S(C)(=O)=O)CC1` (stereo not drawn) | no | no | no |
| `Cc1ccc(Cl)c(OCC(O)Cn2cnc3cc(C)c(C)cc32)c1` (stereo not drawn) | no | no | no |
| `CCCCSc1nc(-c2ccccc2)nc2c1Cc1c(CO)cnc(C)c1O2` | no | no | - |
| `Cc1cccc(-c2noc(-c3cccnc3NCc3ccccc3)n2)c1` | no | no | - |
| `Cc1nc(CNC(=O)c2cc(C)c3nc(N)sc3c2)cs1` | no | no | no |
| `CC(C)N(CCO)CCO` | no | no | no |
| `O=c1[nH]c2ccccc2n1CCCN1CCC(n2c(=O)[nH]c3cc(Cl)ccc32)CC1` | no | no | no |
| `CCCNc1cc(C)nc2c(C)c(-c3ccccc3)nn12` | no | no | - |
| `COc1cc(-c2nnc(N)s2)c(OC)c2c1OCO2` | no | no | no |

The last 5 entries again:

* Cc1nc(CNC(=O)c2cc(C)c3nc(N)sc3c2)cs1 : PreQ1: no; TPP: no; SAM-II: no
* CC(C)N(CCO)CCO : PreQ1: no; TPP: no; SAM-II: no
* O=c1[nH]c2ccccc2n1CCCN1CCC(n2c(=O)[nH]c3cc(Cl)ccc32)CC1 : PreQ1: no; TPP: no; SAM-II: no
* CCCNc1cc(C)nc2c(C)c(-c3ccccc3)nn12 : PreQ1: no; TPP: no
* COc1cc(-c2nnc(N)s2)c(OC)c2c1OCO2 : PreQ1: no; TPP: no; SAM-II: no